Results as given in US6492374B2, “Benzofuran derivatives, their preparation and use” (H. Lundbeck A/S, priority 1998, dated 2002).
At least one structure is not confirmed: it was looked up by name or label, or the drawing left a doubt.

Test system: serotonin reuptake (3H-5-HT uptake into whole rat brain synaptosomes)
Assay: Inhibition of 3H-5-HT uptake into rat brain synaptosomes
Assay type: biochemical
Procedure: Inhibition of ^3H-5HT Uptake Into Rat Brain Synaptosomes
Using this method, the ability of drugs to inhibit the accumulation of ^3H-5-HT into whole rat brain synaptosomes is determined in vitro.

Structure (SMILES) | IC50 [nM]
COc1ccccc1N1CCN(CCCC2(c3ccc(F)cc3)OCc3cc(C#N)ccc32)CC1 (centres unmarked) [Compound 2a, 1-(4-Fluorophenyl)-1-[3-[4-(2-methoxyphenyl)piperazinyl]propyl]-1,3-dihydroisobenzofuran-5-carbonitrile] | 340
N#Cc1ccc2c(c1)COC2(CCCN1CCC(c2c[nH]c3cc(Cl)ccc23)CC1)c1ccc(F)cc1 (centres unmarked) [Compound 2o, 1-[3-[4-(6-chloro-1H-Indol-3-yl)piperidinyl]propyl]-1-(4fluorophenyl)-1,3-dihydroisobenzofuran-5-carbonitrile] | 31
